Laboratory results: PubChem BioAssay AID1224826 (NIAID, 2016)

Screen: 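Genes that change LPS-induced Tnf promoter activity in mouse macrophages when knocked down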 (primary screen)
System: RAW264.7 G9 macrophages from mouse bearing reporters for p65 (GFP) and the Tnf promoter (mCherry)
Knock-down reagent: siRNA pool against mouse genes, 100 nM
Time to read-out: 16 h of LPS stimulation, after 2 days of siRNA transfection
Treatment: bacterial lipopolysaccharide (Salmonella minnesota R595), 10 ng/ml
Read-out: 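Nuclear mCherry signal of the Tnf promoter reporter measured by imaging after background removal, scaled to each plate median and turned into robust z-scores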
Scale: Tnf reporter robust z-score: higher = stronger Tnf promoter reporter signal after LPS; Tnf reporter intensity: higher = stronger Tnf promoter reporter signal
Hit rule: 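Called active when robust z-score is at most -1.3, matching the median of the Tlr4 knock-down control, or over 3; control wells and wells with under 50 cells never active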
Meaning of the calls: active = Tnf reporter clearly lowered or raised; inactive = no clear change in Tnf reporter
Shown is one part, drawn at random, of about 17,000 reagents. Over the whole deposit, about 1,110 (6.6%) got an active call. 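Active means lowered or raised reporter signal; replicate intensities are raw and not normalised per plate.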 Reagents against one gene are numbered here.

| target | reagent | Tnf reporter robust z-score | fewer than 50 cells in well | Tnf reporter intensity, replicate 1 | Tnf reporter intensity, replicate 2 | Outcome |
| --- | --- | --- | --- | --- | --- | --- |
| Mgat5b (mannoside acetylglucosaminyltransferase 5, isoenzyme B) | 1 | -0.69 | enough cells in well | 172 | 137 | inactive |
| Gapdhs (glyceraldehyde-3-phosphate dehydrogenase, spermatogenic) | 1 | -1.23 | enough cells in well | 142 | 81.9 | inactive |
| Prss59 (serine protease 59) | 1 | – | fewer than 50 cells per well; well left out of calls | 144 | 57.3 | inactive |
| Gimap1 (GTPase, IMAP family member 1) | 1 | 1.68 | enough cells in well | 286 | 216 | inactive |
| Slc4a10 | 1 | – | fewer than 50 cells per well; well left out of calls | 72.1 | 58.1 | inactive |
| Ccdc32 (coiled-coil domain containing 32) | 1 | -0.08 | enough cells in well | 251 | 151 | inactive |
| 6430571L13Rik (RIKEN cDNA 6430571L13 gene) | 1 | -0.16 | enough cells in well | 144 | 205 | inactive |
| Pcdh8 (protocadherin 8) | 1 | 0.76 | enough cells in well | 291 | 238 | inactive |
| Tbca (tubulin cofactor A) | 1 | -1.37 | enough cells in well | 153 | 54.3 | active |
| Kif22 (kinesin family member 22) | 1 | 0.28 | enough cells in well | 276 | 154 | inactive |
| Pcdha1 (protocadherin alpha 1) | 1 | 2.17 | enough cells in well | 285 | 201 | inactive |
| Has3 (hyaluronan synthase 3) | 1 | 2.66 | enough cells in well | 443 | 327 | inactive |
| Or2o1 (olfactory receptor family 2 subfamily O member 1) | 1 | -0.16 | enough cells in well | 238 | 165 | inactive |
| Cd300e (CD300E molecule) | 1 | 0.49 | enough cells in well | 169 | 189 | inactive |
| Ubtd1 (ubiquitin domain containing 1) | 1 | 0.99 | enough cells in well | 267 | 287 | inactive |
| Wnt7a (WNT family member 7A) | 1 | -0.58 | enough cells in well | 169 | 204 | inactive |
| Zfp1 (zinc finger protein 1) | 1 | -0.37 | enough cells in well | 111 | 106 | inactive |
| Ogt | 1 | -1.48 | enough cells in well | 127 | 86.4 | active |
| Igf2bp2 (insulin-like growth factor 2 mRNA binding protein 2) | 1 | -0.1 | enough cells in well | 129 | 171 | inactive |
| Ikbip (IKBKB interacting protein) | 1 | -0.25 | enough cells in well | 197 | 131 | inactive |
| Ikbip (IKBKB interacting protein) | 2 | 0.31 | enough cells in well | 267 | 79.5 | inactive |
| Spsb3 (splA/ryanodine receptor domain and SOCS box containing 3) | 1 | – | fewer than 50 cells per well; well left out of calls | 138 | 87.4 | inactive |
| Mtif3 (mitochondrial translational initiation factor 3) | 1 | -1.25 | enough cells in well | 148 | 39.3 | inactive |
| Dennd10 (DENN domain containing 10) | 1 | 0.61 | enough cells in well | 185 | 75.4 | inactive |
| Zfp352 (zinc finger protein 352) | 1 | 3.05 | enough cells in well | 273 | 229 | active |
| Tex18 (testis expressed gene 18) | 1 | 0.3 | enough cells in well | 113 | 117 | inactive |
| Ncapg2 (non-SMC condensin II complex, subunit G2) | 1 | -0.01 | enough cells in well | 180 | 143 | inactive |
| Il2 (interleukin 2) | 1 | 0.22 | enough cells in well | 174 | 178 | inactive |
| Stx8 (syntaxin 8) | 1 | 1.06 | enough cells in well | 155 | 117 | inactive |
| Depp1 (DEPP1 autophagy regulator) | 1 | -0.2 | enough cells in well | 176 | 168 | inactive |
| Lcorl (ligand dependent nuclear receptor corepressor-like) | 1 | 1 | enough cells in well | 230 | 182 | inactive |
| Vsig1 (V-set and immunoglobulin domain containing 1) | 1 | 0.01 | enough cells in well | 208 | 46.6 | inactive |
| Gdpd3 (glycerophosphodiester phosphodiesterase domain containing 3) | 1 | -0.71 | enough cells in well | 217 | 51.7 | inactive |
| Atl3 (atlastin GTPase 3) | 1 | -1.35 | enough cells in well | 112 | 65.7 | active |
| Drd1 (dopamine receptor D1) | 1 | -0.26 | enough cells in well | 180 | 299 | inactive |
| Or5l13 (olfactory receptor family 5 subfamily L member 13) | 1 | 0.43 | enough cells in well | 208 | 178 | inactive |
| Atad3aos (ATPase family, AAA domain containing 3A, opposite strand) | 1 | – | fewer than 50 cells per well; well left out of calls | 176 | 69.3 | inactive |
| Il1bos (interleukin 1 beta, opposite strand) | 1 | -0.52 | enough cells in well | 156 | 148 | inactive |
| Ugt8a (UDP galactosyltransferase 8A) | 1 | 0.56 | enough cells in well | 300 | 242 | inactive |
| Bfsp2 (beaded filament structural protein 2, phakinin) | 1 | 0.29 | enough cells in well | 157 | 181 | inactive |
